Laboratory results reported in the supplement of paper PMC8728848.
The other results are listed elsewhere or left out.

How the values were obtained:
Test in all cases: glycan array binding signal (z-score within array); higher = stronger binding
Details in all cases: glycan notation: IUPAC condensed, linker removed
[1] = biological target: Neu5Ac(a2-3)Gal(b1-3)GalNAc
Summary of the method: (§1)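 The binding signal is a Z-score computed within each array. Data were drawn from 3228 arrays in the Consortium for Functional Glycomics database, restricted to those with a known protein sequence. Scores were averaged over arrays of the same protein sequence at different concentrations or buffers, and over linkers, and negative values can be taken as non-binding.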

[2] = biological target: Neu5Ac(a2-3)Gal(b1-3)GalNAc(b1-3)Gal(a1-4)Gal(b1-4)Glc
Summary of the method: as §1

[3] = biological target: Neu5Ac(a2-3)Gal(b1-3)GalNAc(b1-4)[Neu5Ac(a2-3)]Gal(b1-4)Glc
Summary of the method: as §1

[4] = biological target: Neu5Ac(a2-3)Gal(b1-3)GalNAc(b1-4)[Neu5Ac(a2-8)Neu5Ac(a2-3)]Gal(b1-4)Glc
Summary of the method: as §1

[5] = biological target: Neu5Ac(a2-3)Gal(b1-3)GalNAc6S
Summary of the method: as §1

[6] = biological target: Neu5Ac(a2-3)Gal(b1-3)GlcNAc
Summary of the method: as §1

[7] = biological target: Neu5Ac(a2-3)Gal(b1-3)GlcNAc(b1-2)Man
Summary of the method: as §1

[8] = biological target: Neu5Ac(a2-3)Gal(b1-3)GlcNAc(b1-2)Man(a1-3)[GlcNAc(b1-4)][Neu5Ac(a2-3)Gal(b1-3)GlcNAc(b1-2)Man(a1-6)]Man(b1-4)GlcNAc(b1-4)GlcNAc
Summary of the method: as §1

[9] = biological target: Neu5Ac(a2-3)Gal(b1-3)GlcNAc(b1-2)Man(a1-3)[Neu5Ac(a2-3)Gal(b1-3)GlcNAc(b1-2)Man(a1-6)]Man(b1-4)GlcNAc(b1-4)GlcNAc
Summary of the method: as §1

[10] = biological target: Neu5Ac(a2-3)Gal(b1-3)GlcNAc(b1-3)Gal(b1-3)GlcNAc
Summary of the method: as §1

[11] = biological target: Neu5Ac(a2-3)Gal(b1-3)GlcNAc(b1-3)Gal(b1-4)GlcNAc
Summary of the method: as §1

[12] = biological target: Neu5Ac(a2-3)Gal(b1-3)GlcNAc(b1-3)GalNAc
Summary of the method: as §1

[13] = biological target: Neu5Ac(a2-3)Gal(b1-3)GlcNAc(b1-4)Gal(b1-4)Glc
Summary of the method: as §1

[14] = biological target: Neu5Ac(a2-3)Gal(b1-3)GlcNAc(b1-6)GalNAc
Summary of the method: as §1

[15] = biological target: Neu5Ac(a2-3)Gal(b1-3)GlcNAc6S
Summary of the method: as §1

[16] = biological target: Neu5Ac(a2-3)Gal(b1-3)[Fuc(a1-4)]GlcNAc
Summary of the method: as §1

[17] = biological target: Neu5Ac(a2-3)Gal(b1-3)[Fuc(a1-4)]GlcNAc(b1-3)Gal(b1-3)[Fuc(a1-4)]GlcNAc
Summary of the method: as §1

[18] = biological target: Neu5Ac(a2-3)Gal(b1-3)[Fuc(a1-4)]GlcNAc(b1-3)Gal(b1-4)[Fuc(a1-3)]GlcNAc
Summary of the method: as §1

[19] = biological target: Neu5Ac(a2-3)Gal(b1-3)[GlcNAc(b1-6)]GalNAc
Summary of the method: as §1

[20] = biological target: Neu5Ac(a2-3)Gal(b1-3)[Neu5Ac(a2-6)]GalNAc
Summary of the method: as §1

[21] = biological target: Neu5Ac(a2-3)Gal(b1-3)[Neu5Ac(a2-6)]GlcNAc(b1-3)[Fuc(a1-3)[Gal(b1-4)]GlcNAc(b1-6)]Gal(b1-4)Glc
Summary of the method: as §1

[22] = biological target: Neu5Ac(a2-3)Gal(b1-3)]Neu5Ac(a2-3)Gal(b1-4)]GlcNAc
Summary of the method: as §1

Neu5Ac(a2-3)Gal(b1-4)Glc = biological target: Neu5Ac(a2-3)Gal(b1-4)Glc
Summary of the method: as §1

[23] = biological target: Neu5Ac(a2-3)Gal(b1-4)GlcNAc
Summary of the method: as §1

[24] = biological target: Neu5Ac(a2-3)Gal(b1-4)GlcNAc(b1-2)Man
Summary of the method: as §1

[25] = biological target: Neu5Ac(a2-3)Gal(b1-4)GlcNAc(b1-2)Man(a1-3)[GlcNAc(b1-4)][Neu5Ac(a2-3)Gal(b1-4)GlcNAc(b1-2)Man(a1-6)]Man(b1-4)GlcNAc(b1-4)GlcNAc
Summary of the method: as §1

[26] = biological target: Neu5Ac(a2-3)Gal(b1-4)GlcNAc(b1-2)Man(a1-3)[Neu5Ac(a2-3)Gal(b1-4)GlcNAc(b1-2)Man(a1-6)]Man(b1-4)GlcNAc(b1-4)GlcNAc
Summary of the method: as §1

[27] = biological target: Neu5Ac(a2-3)Gal(b1-4)GlcNAc(b1-2)Man(a1-3)[Neu5Ac(a2-3)Gal(b1-4)GlcNAc(b1-2)Man(a1-6)]Man(b1-4)GlcNAc(b1-4)[Fuc(a1-6)]GlcNAc
Summary of the method: as §1

[28] = biological target: Neu5Ac(a2-3)Gal(b1-4)GlcNAc(b1-2)Man(a1-3)[Neu5Ac(a2-6)Gal(b1-4)GlcNAc(b1-2)Man(a1-6)]Man(b1-4)GlcNAc(b1-4)GlcNAc
Summary of the method: as §1

[29] = biological target: Neu5Ac(a2-3)Gal(b1-4)GlcNAc(b1-2)[Neu5Ac(a2-3)Gal(b1-4)GlcNAc(b1-4)]Man(a1-3)[GlcNAc(b1-4)][Neu5Ac(a2-3)Gal(b1-4)GlcNAc(b1-2)[Neu5Ac(a2-3)Gal(b1-4)GlcNAc(b1-6)]Man(a1-6)]Man(b1-4)GlcNAc(b1-4)GlcNAc
Summary of the method: as §1

[30] = biological target: Neu5Ac(a2-3)Gal(b1-4)GlcNAc(b1-2)[Neu5Ac(a2-3)Gal(b1-4)GlcNAc(b1-4)]Man(a1-3)[GlcNAc(b1-4)][Neu5Ac(a2-3)Gal(b1-4)GlcNAc(b1-4)Man(a1-6)]Man(b1-4)GlcNAc(b1-4)GlcNAc
Summary of the method: as §1

[31] = biological target: Neu5Ac(a2-3)Gal(b1-4)GlcNAc(b1-2)[Neu5Ac(a2-3)Gal(b1-4)GlcNAc(b1-6)]Man(a1-6)[Neu5Ac(a2-3)Gal(b1-4)GlcNAc(b1-2)Man(a1-3)]Man(b1-4)GlcNAc(b1-4)GlcNAc
Summary of the method: as §1

[32] = biological target: Neu5Ac(a2-3)Gal(b1-4)GlcNAc(b1-2)[Neu5Ac(a2-3)Gal(b1-4)GlcNAc(b1-6)]Man(a1-6)[Neu5Ac(a2-3)Gal(b1-4)GlcNAc(b1-2)Man(a1-3)][GlcNAc(b1-4)]Man(b1-4)GlcNAc(b1-4)GlcNAc
Summary of the method: as §1

[33] = biological target: Neu5Ac(a2-3)Gal(b1-4)GlcNAc(b1-3)Gal
Summary of the method: as §1

[34] = biological target: Neu5Ac(a2-3)Gal(b1-4)GlcNAc(b1-3)Gal(b1-3)GlcNAc
Summary of the method: as §1

[35] = biological target: Neu5Ac(a2-3)Gal(b1-4)GlcNAc(b1-3)Gal(b1-4)GlcNAc
Summary of the method: as §1

[36] = biological target: Neu5Ac(a2-3)Gal(b1-4)GlcNAc(b1-3)Gal(b1-4)GlcNAc(b1-2)Man(a1-3)[Neu5Ac(a2-3)Gal(b1-4)GlcNAc(b1-3)Gal(b1-4)GlcNAc(b1-2)Man(a1-6)]Man(b1-4)GlcNAc(b1-4)GlcNAc
Summary of the method: as §1

[37] = biological target: Neu5Ac(a2-3)Gal(b1-4)GlcNAc(b1-3)Gal(b1-4)GlcNAc(b1-3)Gal(b1-4)GlcNAc
Summary of the method: as §1

[38] = biological target: Neu5Ac(a2-3)Gal(b1-4)GlcNAc(b1-3)Gal(b1-4)GlcNAc(b1-3)Gal(b1-4)GlcNAc(b1-2)Man(a1-3)[Neu5Ac(a2-3)Gal(b1-4)GlcNAc(b1-3)Gal(b1-4)GlcNAc(b1-3)Gal(b1-4)GlcNAc(b1-2)Man(a1-6)]GalNAc
Summary of the method: as §1

[39] = biological target: Neu5Ac(a2-3)Gal(b1-4)GlcNAc(b1-3)Gal(b1-4)GlcNAc(b1-3)GalNAc
Summary of the method: as §1

[40] = biological target: Neu5Ac(a2-3)Gal(b1-4)GlcNAc(b1-3)Gal(b1-4)GlcNAc(b1-3)[Neu5Ac(a2-3)Gal(b1-4)GlcNAc(b1-3)Gal(b1-4)GlcNAc(b1-6)]GalNAc
Summary of the method: as §1

[41] = biological target: Neu5Ac(a2-3)Gal(b1-4)GlcNAc(b1-3)Gal(b1-4)GlcNAc(b1-6)[Gal(b1-3)]GalNAc
Summary of the method: as §1

[42] = biological target: Neu5Ac(a2-3)Gal(b1-4)GlcNAc(b1-3)Gal(b1-4)[Fuc(a1-3)]GlcNAc
Summary of the method: as §1

[43] = biological target: Neu5Ac(a2-3)Gal(b1-4)GlcNAc(b1-3)GalNAc
Summary of the method: as §1

[44] = biological target: Neu5Ac(a2-3)Gal(b1-4)GlcNAc(b1-3)[Neu5Ac(a2-3)Gal(b1-4)GlcNAc(b1-6)]GalNAc
Summary of the method: as §1

B1: Tp0751, 83732 (protein)
chain: MSYYHHHHHHLESTSLYKKAGFQHGHVPPRRIPPHDTFGALPTAALPSNARDTAAHPSDTADNTSGSSTTTDPRSHGNAPPAPVGGAAQTHTQPPVQTAMRIALWNRATHGEQGALQHLLAGLWIQTEISPNSGDIHPLLFFDREHAEITFSRASVQEIFLVDSAHTHRKTVSFLTRNTAISSIRRRLEVTFESHEVIHVRAVEDVARLKIGSTSMWDGQYTRYHAGPASAPSP
glycan array binding signal (z-score) [1]: -0.647 | glycan array binding signal (z-score) [2]: 0.106 | glycan array binding signal (z-score) [3]: 0.006 | glycan array binding signal (z-score) [4]: 0.616 | glycan array binding signal (z-score) [5]: 0.237 | glycan array binding signal (z-score) [6]: -0.625 | glycan array binding signal (z-score) [7]: -0.108 | glycan array binding signal (z-score) [8]: -0.487 | glycan array binding signal (z-score) [9]: 0.814 | glycan array binding signal (z-score) [10]: -0.225 | glycan array binding signal (z-score) [11]: 0.058 | glycan array binding signal (z-score) [12]: -0.826 | glycan array binding signal (z-score) [13]: -0.235 | glycan array binding signal (z-score) [14]: -0.152 | glycan array binding signal (z-score) [15]: -0.504 | glycan array binding signal (z-score) [16]: -0.061 | glycan array binding signal (z-score) [17]: 0.714 | glycan array binding signal (z-score) [18]: 0.658 | glycan array binding signal (z-score) [19]: 0.224 | glycan array binding signal (z-score) [20]: -0.607 | glycan array binding signal (z-score) [21]: 0.642 | glycan array binding signal (z-score) [22]: -0.301 | glycan array binding signal (z-score) (Neu5Ac(a2-3)Gal(b1-4)Glc): -0.147 | glycan array binding signal (z-score) [23]: -0.059 | glycan array binding signal (z-score) [24]: 6.75 | glycan array binding signal (z-score) [25]: -0.35 | glycan array binding signal (z-score) [26]: -0.437 | glycan array binding signal (z-score) [27]: -0.523 | glycan array binding signal (z-score) [28]: -0.421 | glycan array binding signal (z-score) [29]: -0.427 | glycan array binding signal (z-score) [30]: -0.386 | glycan array binding signal (z-score) [31]: 0.009 | glycan array binding signal (z-score) [32]: -0.21 | glycan array binding signal (z-score) [33]: -0.332 | glycan array binding signal (z-score) [34]: -0.071 | glycan array binding signal (z-score) [35]: 0.172 | glycan array binding signal (z-score) [36]: 0.542 | glycan array binding signal (z-score) [37]: 0.133 | glycan array binding signal (z-score) [38]: 0.338 | glycan array binding signal (z-score) [39]: -0.746 | glycan array binding signal (z-score) [40]: -0.346 | glycan array binding signal (z-score) [41]: 0.008 | glycan array binding signal (z-score) [42]: -0.479 | glycan array binding signal (z-score) [43]: -0.179 | glycan array binding signal (z-score) [44]: -0.246
